Results on 58 molecules are retold here after the supplement of paper PMC12578635.

The list shows a part of the results. No stated cut-off is given here; in the data, active = 150% or more and inactive = the rest. Most values come without repeats; read them as rough.

This experiment deals with Staphylococcus aureus JE2-lux inside RAW 264.7 macrophages. Nature of the experiment: intracellular bacterial bioluminescence relative to DMSO vehicle; higher = higher intracellular bacterial metabolic activity. To be noted: 10 µM; treatment time 4 h; gentamicin 50 µg/ml.
As for `CCc1cccc(NC(=O)c2nn(C)c(C(F)(F)F)c2Cl)c1`, the intracellular bacterial bioluminescence is inactive: 116%. On to `O=C(CSc1ncnc2nc[nH]c12)N1CCN(Cc2ccc3c(c2)OCO3)CC1`, for which the intracellular bacterial bioluminescence is inactive: 97.6%.

In the case of `CCOc1ccccc1/C=N/NC(=O)c1n[nH]c2c1CCC2`, the intracellular bacterial bioluminescence was active: 158%.

Turning to `O=C(Nc1ccc(SCc2nnc(-c3ccccc3)o2)cc1)C1CC1`, the intracellular bacterial bioluminescence was inactive: 60.4%. On to `Cc1c(-c2ccccc2)n[nH]c1C(=O)NC(c1ccccc1)c1ccnn1C` (stereo not drawn), for which the intracellular bacterial bioluminescence was inactive: 85.3%.

`Cc1nn(-c2nc3ccccc3[nH]2)c2c1C(c1ccc([N+](=O)[O-])s1)CC(=O)N2` (stereo not drawn): the intracellular bacterial bioluminescence was inactive: 34.7%.

`CCOC(=O)c1ccccc1NC(=O)CC1S/C(=N/C)N(C)C1=O` (stereo not drawn): the intracellular bacterial bioluminescence is inactive: 77.3%. Then `CCc1ccc2[nH]c3nc(SCC(=O)Nc4nnc(C(C)C)s4)nnc3c2c1`, with inactive: 32.4%; and `COc1cccc(OC(=O)c2cc3c(-c4ccccc4F)nn(C)c3s2)c1`, with inactive: 60.6%; and `CC(C)N1C(=O)/C(=C2/C(=O)N(CC(N)=O)c3ccccc32)SC1=S`, with inactive: 90.6%. The value for `CCOC(=O)Cc1ccc(NC(=O)N2CCc3c(c(C(=O)N4CCCCC4)nn3C)C2)cc1` was inactive: 121%; that for `O=C(Cc1csc2nc(-c3ccc(F)cc3)cn12)NCc1ccc(F)cc1` was inactive: 72.4%. With `O=C(C1CCN(c2nccnc2Oc2ccccc2)CC1)N1CCN(c2cccc(Cl)c2)CC1`, the intracellular bacterial bioluminescence is inactive: 47.7%. In the case of `CCN(CC(O)Cn1c2ccccc2c2ccccc21)S(=O)(=O)c1ccc(F)cc1` (stereo not drawn), the intracellular bacterial bioluminescence was inactive: 105%. The value for `COc1ccc(OC)c(S(=O)(=O)NCCc2sc(-c3ccc(F)cc3)nc2C)c1` was inactive: 84.1%. Then `Cc1cc(C(=O)NC2CCCOC2)c2cccc(Cl)c2n1` (stereo not drawn), with inactive: 100%; and `Cc1ccc(S(=O)(=O)Nc2ccccc2C(=O)Nc2c(C(N)=O)oc3ccccc23)cc1`, with inactive: 95.5%; and `COc1ccc(Nc2ncnc3scc(-c4ccc(Cl)cc4)c23)c(OC)c1`, with inactive: 106%. As for `COc1ccccc1NC(=O)CSc1ncnc2c1oc1ccccc12`, the intracellular bacterial bioluminescence is inactive: 60.4%. `O=c1ccn(-c2nc(-c3ccccc3)sc2-c2ccccc2)c(=O)[nH]1`: the intracellular bacterial bioluminescence is inactive: 90.7%. The value for `COc1ccc(-c2noc(N3CCC(C(=O)N(C)c4ccc(F)cc4)CC3)n2)cc1` was inactive: 114%; that for `O=C(CSc1nc(-c2ccc(F)cc2)nc2c1Cc1ccccc1O2)Nc1ccc(C(=O)O)cc1` was inactive: 92.7%; that for `COc1ccc(-c2nn(-c3ccccc3)cc2CNC(=O)/C=C/C(=O)O)cc1` was inactive: 92.6%.

Turning to `Cc1ccc(NC(=O)CSc2nnc(-c3cccnc3)n2N)cc1Cl`, the intracellular bacterial bioluminescence was inactive: 136%. Then `O=C(NNc1nc2ccc(F)cc2s1)c1ccc(S(=O)(=O)N2CCc3ccccc3C2)cc1`, with inactive: 50.5%; and `COc1ccc(NC(=O)CSc2nnc3[nH]c(=O)ccn23)c(OC)c1`, with inactive: 98.5%; and `Cc1ccc(-c2nnc3ccccc3c2C(=O)Nc2ccccc2Cl)cc1`, with inactive: 80.4%.

As for `CCCc1n[nH]c2c1C(C1CC=CCC1)C(C#N)=C(N)O2` (stereo not drawn), the intracellular bacterial bioluminescence is inactive: 85.5%. Turning to `CCOC(=O)c1[nH]c2ccccc2c1NC(=O)c1cc(Cl)ccc1OC`, the intracellular bacterial bioluminescence was inactive: 91.4%.

For the molecule `COc1ccccc1NC(=O)C1CCN(c2cnccn2)CC1`, the intracellular bacterial bioluminescence is inactive: 91.6%. The value for `Cc1ccc(OCC(O)Cn2c(NCCCO)nc3c2c(=O)n(C)c(=O)n3C)cc1C` (stereo not drawn) was inactive: 86.1%; that for `O=C(Nc1ccccc1Cl)C1CCN(C(=O)Nc2ccccc2)CC1` was inactive: 86%. The value for `NC(=O)c1nc(-c2ccoc2)nc2c1[nH]c(=O)n2-c1ccc(Cl)cc1` was inactive: 92.8%; that for `O=C(CSc1nccc2ccccc12)NC1CCCOC1` (stereo not drawn) was inactive: 104%; that for `Cc1ccc(-c2csc(-c3cccn3CC(=O)N3CCN(c4cccc(C)c4)C(C)C3)n2)cc1` (stereo not drawn) was inactive: 77.3%. For `COCc1c(Br)c(C)nc(OCC(=O)N/N=C/c2ccccc2O)c1C#N`, the intracellular bacterial bioluminescence was inactive: 97.4%.

In the case of `COC(=O)c1c(NC(=O)CC2Sc3ccccc3NC2=O)sc2c1CCC(C(C)(C)C)C2` (stereo not drawn), the intracellular bacterial bioluminescence is inactive: 106%. Then `COc1cccc(Nc2nc(N3CCOCC3)c3cnn(C)c3n2)c1`, with inactive: 119%.

`CCc1ccccc1NC(=O)NC1CC(=O)N(c2cccc(OC)c2)C1` (stereo not drawn): the intracellular bacterial bioluminescence is inactive: 94%.

For `CCC(C)NC(=O)c1cc2cc(OC)ccc2oc1=O` (stereo not drawn), the intracellular bacterial bioluminescence is inactive: 96.6%. Then `Cc1cccc(N2CCN(S(=O)(=O)c3cc(-c4ccno4)oc3C)CC2C)c1` (stereo not drawn), with inactive: 101%; and `O=C(O)C(Cc1c[nH]cn1)N1C(=O)c2cccc([N+](=O)[O-])c2C1=O` (stereo not drawn), with inactive: 112%. Consider `O=C(c1ccccc1)N1N=C(c2ccc(O)cc2)CC1c1ccco1` (stereo not drawn), for which the intracellular bacterial bioluminescence was inactive: 80.4%. Then `NC(=O)C1CCN(C(=O)Cc2cc(=O)[nH]c(=O)[nH]2)CC1`, with inactive: 98.2%; and `COc1ccc(NC(=O)c2ccccc2NS(=O)(=O)c2ccc(F)cc2)c([N+](=O)[O-])c1`, with inactive: 125%. For the molecule `Cc1nc(C)c(C(=O)N2CCN(S(=O)(=O)c3c(C)nn(Cc4ccccc4)c3C)CC2)s1`, the intracellular bacterial bioluminescence was inactive: 70.4%. Then `COc1ccc(-c2nc3c(C)cccn3c2NCc2ccc3c(c2)OCO3)cc1OC`, with inactive: 72.6%; and `Cc1cccc(CNC(=O)c2nn(C)c3c2CN(S(=O)(=O)c2cn(C)cn2)CC3)c1`, with inactive: 108%; and `CCCCNC(=O)c1cnc(N2CCOCC2)nc1C`, with inactive: 134%. Turning to `O=C(CSc1cc[nH]c(=O)n1)NCc1ccccc1`, the intracellular bacterial bioluminescence was inactive: 103%.

For the molecule `Cc1ccn2c(=O)c(C(=O)NCCCN3CC(C)CC(C)C3)c(O)nc2c1` (stereo not drawn), the intracellular bacterial bioluminescence was inactive: 142%. As to `CCCNC(=O)CCc1c(C)[nH]c2nc(NCc3cccs3)nn2c1=O`, the intracellular bacterial bioluminescence was inactive: 106%. The value for `Cc1ccc(SCc2cc(=O)[nH]c(N3CCN(c4ccccc4)CC3)n2)cc1` was inactive: 94.7%; that for `CCCCc1nc(SCc2cccc(C(F)(F)F)c2)c2c(=O)n(C)c(=O)n(C)c2n1` was inactive: 88.1%. As to `O=C(CSC1=NC2(CCCCC2)N=C1c1ccccc1)Nc1ccc2c(c1)OCCO2`, the intracellular bacterial bioluminescence is inactive: 99.8%. Then `COc1ccc(Cl)cc1NC(=O)CSc1nc2c(c(=O)n1C)SC(C)C2` (stereo not drawn), with inactive: 76%. `COC(=O)c1sccc1N1Cc2ccncc2C1=O`: the intracellular bacterial bioluminescence was inactive: 118%. For `NC(=O)C1CCN(C(=O)CCCCCn2c(=O)[nH]c3ccsc3c2=O)CC1`, the intracellular bacterial bioluminescence is inactive: 116%.
